# From publication PMC7819943, “Rice protein-binding microarrays: a tool to detect cis-acting elements near promoter regions in rice”
# This is one part of the list.
# Target: T1, OsSMF1 (Oryza sativa, UniProt Q6ZLB0 1-436)
# T1 sequence: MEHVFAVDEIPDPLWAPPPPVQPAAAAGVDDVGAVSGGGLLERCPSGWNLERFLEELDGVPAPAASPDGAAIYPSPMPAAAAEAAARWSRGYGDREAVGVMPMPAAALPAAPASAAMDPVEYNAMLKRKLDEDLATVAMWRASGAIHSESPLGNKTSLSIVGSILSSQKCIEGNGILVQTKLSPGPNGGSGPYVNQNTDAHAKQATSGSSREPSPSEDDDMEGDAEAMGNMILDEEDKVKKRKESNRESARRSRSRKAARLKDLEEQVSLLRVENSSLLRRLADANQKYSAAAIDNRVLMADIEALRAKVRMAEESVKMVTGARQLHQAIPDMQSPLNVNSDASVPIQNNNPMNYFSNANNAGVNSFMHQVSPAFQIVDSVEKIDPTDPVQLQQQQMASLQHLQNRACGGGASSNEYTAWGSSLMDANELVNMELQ
# Experiment: protein-binding microarray (RPBM); PBS, 2% BSA, 51.3 ng/ul salmon testes DNA, 50 uM zinc acetate, 200 nM TF, 25 C, 1 h; high values mean tight binding
# Details: protein: recombinant; tags: N-terminal polyhistidine and DsRed monomer fusion (pET32a); chain copies: 2; label: CyDye5-dUTP incorporated in the synthesized complementary strand; 3' TTTTT single-stranded linker to array surface; dsDNA, one strand shown
# How it was run: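 The binding signal is fluorescence intensity per array feature (arbitrary units). Readings came from an Axon 4000B scanner after a washed, 2% BSA-blocked, double-stranded custom Agilent array had been incubated for 1 h at 25 °C with 200 nM protein and 50 µM zinc acetate. The protein was a Ni–NTA-purified transcription factor fused N-terminally to polyhistidine and DsRed, expressed in E. coli BL21-CodonPlus.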
row,Sequence,binding signal
1,CCCAACCTCTCTCTCTCTCTCTCTCTCTCTCCTCCCACCCCGGAGTCACCTAGTGCAG,3170 fluorescence intensity (a.u.)
2,AACTAGCACATATAATATTAGTGCAACTGGCATCTACACTCGGAGTCACCTAGTGCAG,3650 fluorescence intensity (a.u.)
3,TTAGGCGGCCTGACGGCCCACCTGTAAGTCTGACGCGGCCCGGAGTCACCTAGTGCAG,8170 fluorescence intensity (a.u.)
4,GAGCCGGGTCGGTCTGCCGCTCTTATGGATCAACGTGCCACGGAGTCACCTAGTGCAG,3260 fluorescence intensity (a.u.)
5,ATTAACTGCCAACTGTGCGCTGCTAATCTGATTTGATCCACGGAGTCACCTAGTGCAG,3520 fluorescence intensity (a.u.)
6,GCGTACGGCATCAATTGCTGCGTGCACTCACTTGTCGTCACGGAGTCACCTAGTGCAG,3220 fluorescence intensity (a.u.)
7,GACTGAATGCCCACCCCTACGTGTTGAGACTTGTGAGAGGCGGAGTCACCTAGTGCAG,3530 fluorescence intensity (a.u.)
8,ACTCACCAAACGCATCAACTACTACCCCAAATTTTCTATCCGGAGTCACCTAGTGCAG,24700 fluorescence intensity (a.u.)
9,CTGCGGGAGGACGGGTCCGGGGCGGGGTCCGGGTCGGTGCCGGAGTCACCTAGTGCAG,3280 fluorescence intensity (a.u.)
10,CACACTCACTATTCTAAACGCATACACGTAGCATATCTTGCGGAGTCACCTAGTGCAG,5890 fluorescence intensity (a.u.)
11,TATAACGGATTCATCCGATTCCATTCCTCTGTTTACCTCTCGGAGTCACCTAGTGCAG,19300 fluorescence intensity (a.u.)
12,TGAACATGCCCATTGTTACTCATTCCTAATACTATAGGAACGGAGTCACCTAGTGCAG,42200 fluorescence intensity (a.u.)
13,ACCCTTCCGCTTTGCCCCTGCTGCCTACACCGCCCCACCGCGGAGTCACCTAGTGCAG,3480 fluorescence intensity (a.u.)
14,CCGCGGCCGCTCGTCCCACGGATCTGGAAATCGCATCCGCCGGAGTCACCTAGTGCAG,3240 fluorescence intensity (a.u.)
15,TGCCTCACCGCCACTAGCTAGCAGCAGCGGCGGCGGCGGCCGGAGTCACCTAGTGCAG,22700 fluorescence intensity (a.u.)
16,ACAAACTTCCAACTTTTCTATCACATCGTTCCAATTTCAACGGAGTCACCTAGTGCAG,22100 fluorescence intensity (a.u.)
17,AATTCAAGTTGCCACGTTCACCTCAATAATGCTTGGGTACCGGAGTCACCTAGTGCAG,4410 fluorescence intensity (a.u.)
18,AACCAACGGTCGCTGTTACGCCACGTCACCTCACCGACGCCGGAGTCACCTAGTGCAG,39200 fluorescence intensity (a.u.)
19,GTCTGTGATCCACTTAAGCCGCAAACTACACGTAAGATATCGGAGTCACCTAGTGCAG,5090 fluorescence intensity (a.u.)
20,GTACTGCACTTGGGTTATAACTTCTCGACCTTCAACACTTCGGAGTCACCTAGTGCAG,17300 fluorescence intensity (a.u.)
21,GTTTTATTTTGTCCACGTAGATCCTCTAAGTACTTGTTTTCGGAGTCACCTAGTGCAG,16400 fluorescence intensity (a.u.)

row,Sequence,binding signal
1,CAACTGCACCGTGCAGCTGCCGCAGCATCACCTTCCCACGCGGAGTCACCTAGTGCAG,3500 fluorescence intensity (a.u.)
2,TGCTTCCACCGCATCGTCACTCGCCGGTGAGCATCCCTCTCGGAGTCACCTAGTGCAG,4800 fluorescence intensity (a.u.)
3,ATAATCCTATTGTAGATTTGCTGAGTTGTACCACCATATCCGGAGTCACCTAGTGCAG,7970 fluorescence intensity (a.u.)
4,TGTTTAGTTGGTGTAGAGATGGTAGATGCTAACTAAACTGCGGAGTCACCTAGTGCAG,18400 fluorescence intensity (a.u.)
5,AGTACGTAAAGGTGTAGGACGACAACTGTTGATGGGACATCGGAGTCACCTAGTGCAG,3690 fluorescence intensity (a.u.)
6,AGCTGGTTTTGCCAATTTTATTTGCTTGTCATTGGCTCTGCGGAGTCACCTAGTGCAG,3890 fluorescence intensity (a.u.)
7,GAGCCAGTGGAGATGGAAGCTGATGCAATGTTGGAGGCGGCGGAGTCACCTAGTGCAG,3930 fluorescence intensity (a.u.)
8,CCGCGCACCATCTCAACCGGTCAACAGAGACTCTCCACTACGGAGTCACCTAGTGCAG,4050 fluorescence intensity (a.u.)
9,TAAGTATGACTCGTAGACAACGGACCCTTTACGATAGGTTCGGAGTCACCTAGTGCAG,3230 fluorescence intensity (a.u.)
10,TGGGCCCCACCGAGCAGTGAGAGGACGAGTAGTACAGATCCGGAGTCACCTAGTGCAG,28800 fluorescence intensity (a.u.)
11,CCGCTCGCCGCCGCGCGGTCACTGCCATGCGGCGCCGCCACGGAGTCACCTAGTGCAG,3140 fluorescence intensity (a.u.)
12,AAAGCTGCGCCGCCACAGGCGCGCACGTCAGCGCTGTCGCCGGAGTCACCTAGTGCAG,4630 fluorescence intensity (a.u.)
13,CCATGTTTTCATCATCATCTTCTTCTTCTTCTTCCACCCGCGGAGTCACCTAGTGCAG,3450 fluorescence intensity (a.u.)
14,TCATCCGGGCCCACGTGCACAGAGACACCCCAGCTCACGCCGGAGTCACCTAGTGCAG,3580 fluorescence intensity (a.u.)
15,GTTGTAACAGTGATCCACCTTTGTTCTGTTTTGAGGTCATCGGAGTCACCTAGTGCAG,4150 fluorescence intensity (a.u.)
16,ATTGCGAGCGCCCATGGATTGGACACGCGTCTCTCTCGCCCGGAGTCACCTAGTGCAG,5760 fluorescence intensity (a.u.)
17,CCGCCGCTCCAGCCCACCACCGCCGCCACTTCAGCTAGCTCGGAGTCACCTAGTGCAG,3250 fluorescence intensity (a.u.)
18,CAAACCGACACACGACGTGTGACGTGTTACACGCACCCCTCGGAGTCACCTAGTGCAG,22200 fluorescence intensity (a.u.)
19,TTCGTCTGGCAACGCCGCCGCCGCCGCCCTAGTCGCCGCTCGGAGTCACCTAGTGCAG,3760 fluorescence intensity (a.u.)
20,GAAAATTTTCCTATTTGGCCCTTTGATACAAAGGATTGGACGGAGTCACCTAGTGCAG,3370 fluorescence intensity (a.u.)
21,CCCCTATGTACATTTATGTGGGCCTCATGTGTCATAACCTCGGAGTCACCTAGTGCAG,4700 fluorescence intensity (a.u.)

# Individual results from the list:
# Under binding signal, CAACTGCACCGTGCAGCTGCCGCAGCATCACCTTCCCACGCGGAGTCACCTAGTGCAG is entered as 3500 fluorescence intensity (a.u.)
# Under binding signal, CCGCCGCTCCAGCCCACCACCGCCGCCACTTCAGCTAGCTCGGAGTCACCTAGTGCAG is entered as 3250 fluorescence intensity (a.u.)
